Laboratory results from patent US9664696B1, “Compounds for determining the presence of hydrogen sulfide and methods of use” (University of Oregon, priority 2013, dated 2017).

Experiment: Chemiluminescent H2S detection limit (HRP/H2O2/p-iodophenol)
Settings: 1 hour incubation, p-iodophenol enhancer
Experimental: In a septum-sealed cuvette, a solution of the compound (50 μM) and the desired reactive species was incubated in PIPES buffer (50 mM PIPES, 100 mM KCl, pH 7.4) for 60 minutes at 37.0° C. After incubation, 40 μL of 6 M NaOH was added to increase the pH to an optimal level for luminol chemiluminescence. After pH adjustment, 10 μL of 10 U/mL Horseradish Peroxidase (HRP) with 0.2 μM p-iodophenol was added. A background reading was acquired for 60 seconds, after which 50 μL of H2O2 (35%) was added. The sample luminosity at 425 nm was integrated for 300 s after H2O2 addition. The data reported are the average of at least three independent experiments. […]
Following the H2S-derived chemiluminescent response of both chemiluminescent compound precursor 200 and chemiluminescent compound precursor 202, the detection limit of each chemiluminescent compound precursor for H2S was determined. After incubating each chemiluminescent compound precursor for 1 hour for different H2S concentrations, the chemiluminescent response was measured after treatment with H2O2/HRP using p-iodophenol as an enhancer. […] Based on the concentration-dependent H2S response and the instrumental background measurements, the H2S detection limit (3σ) of chemiluminescent compound precursor 200 and chemiluminescent compound precursor 202 was determined to be 0.7±0.3 μM and 4.6±2.0 μM, respectively. […]

Row | Structure (SMILES) | H2S detection limit (3σ)
1 | [N-]=[N+]=Nc1cccc2c(=O)[nH][nH]c(=O)c12 [compound 200, 3-Azidophthalhydrazide] | 0.7 ± 0.3 µM
2 | [N-]=[N+]=Nc1ccc2c(=O)[nH][nH]c(=O)c2c1 [compound 202, 4-Azidophthalhydrazide] | 4.6 ± 2.0 µM
